We go through 32 molecules from patent US20130129725A1.

Sequences of proteins named here, by UniProt entry; tags and fusion partners are left off. A change or cut given only in a name is not applied to a line headed by its entry.
UniProt P16092: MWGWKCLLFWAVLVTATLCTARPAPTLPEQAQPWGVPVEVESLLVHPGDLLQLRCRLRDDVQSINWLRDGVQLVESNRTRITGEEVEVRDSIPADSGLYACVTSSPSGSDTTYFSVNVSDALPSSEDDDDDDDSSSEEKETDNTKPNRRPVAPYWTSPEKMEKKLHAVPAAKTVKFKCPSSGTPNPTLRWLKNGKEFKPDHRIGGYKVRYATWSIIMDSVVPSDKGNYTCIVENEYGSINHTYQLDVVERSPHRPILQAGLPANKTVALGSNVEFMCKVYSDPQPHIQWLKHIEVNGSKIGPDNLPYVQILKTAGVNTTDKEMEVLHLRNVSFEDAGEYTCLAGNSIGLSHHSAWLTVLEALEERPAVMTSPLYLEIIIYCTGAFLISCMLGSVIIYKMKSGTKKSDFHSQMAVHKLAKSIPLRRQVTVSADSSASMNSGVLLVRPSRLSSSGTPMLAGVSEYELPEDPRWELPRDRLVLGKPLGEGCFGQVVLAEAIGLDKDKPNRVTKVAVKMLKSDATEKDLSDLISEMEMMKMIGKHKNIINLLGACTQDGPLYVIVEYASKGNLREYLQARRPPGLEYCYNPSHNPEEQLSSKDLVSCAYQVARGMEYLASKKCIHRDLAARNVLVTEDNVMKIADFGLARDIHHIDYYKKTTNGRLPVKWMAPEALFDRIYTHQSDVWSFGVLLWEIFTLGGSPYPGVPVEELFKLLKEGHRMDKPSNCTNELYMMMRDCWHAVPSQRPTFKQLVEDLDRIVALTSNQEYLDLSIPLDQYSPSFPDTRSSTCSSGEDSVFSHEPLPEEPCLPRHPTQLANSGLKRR
UniProt P11362: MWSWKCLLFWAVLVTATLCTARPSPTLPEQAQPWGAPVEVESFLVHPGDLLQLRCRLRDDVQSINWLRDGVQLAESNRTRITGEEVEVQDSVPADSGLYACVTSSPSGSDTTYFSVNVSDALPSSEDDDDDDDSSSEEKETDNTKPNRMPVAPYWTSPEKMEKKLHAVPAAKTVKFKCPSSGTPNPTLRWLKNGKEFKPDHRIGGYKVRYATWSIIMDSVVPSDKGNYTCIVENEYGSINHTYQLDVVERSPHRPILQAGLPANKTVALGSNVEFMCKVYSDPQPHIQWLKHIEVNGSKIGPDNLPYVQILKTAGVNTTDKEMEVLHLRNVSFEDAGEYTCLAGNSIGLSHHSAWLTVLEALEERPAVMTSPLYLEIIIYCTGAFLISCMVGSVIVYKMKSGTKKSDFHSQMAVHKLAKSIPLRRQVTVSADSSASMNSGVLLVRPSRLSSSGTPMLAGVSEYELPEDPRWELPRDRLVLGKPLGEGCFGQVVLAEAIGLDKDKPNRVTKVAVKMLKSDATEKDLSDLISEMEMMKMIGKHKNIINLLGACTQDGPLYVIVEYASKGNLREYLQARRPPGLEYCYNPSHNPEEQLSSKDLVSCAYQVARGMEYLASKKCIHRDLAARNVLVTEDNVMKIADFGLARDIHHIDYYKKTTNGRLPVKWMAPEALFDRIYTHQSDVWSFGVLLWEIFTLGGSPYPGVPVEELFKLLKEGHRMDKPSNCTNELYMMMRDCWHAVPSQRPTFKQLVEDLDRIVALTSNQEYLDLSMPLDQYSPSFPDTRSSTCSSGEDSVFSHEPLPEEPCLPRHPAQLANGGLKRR
UniProt Q86Z14: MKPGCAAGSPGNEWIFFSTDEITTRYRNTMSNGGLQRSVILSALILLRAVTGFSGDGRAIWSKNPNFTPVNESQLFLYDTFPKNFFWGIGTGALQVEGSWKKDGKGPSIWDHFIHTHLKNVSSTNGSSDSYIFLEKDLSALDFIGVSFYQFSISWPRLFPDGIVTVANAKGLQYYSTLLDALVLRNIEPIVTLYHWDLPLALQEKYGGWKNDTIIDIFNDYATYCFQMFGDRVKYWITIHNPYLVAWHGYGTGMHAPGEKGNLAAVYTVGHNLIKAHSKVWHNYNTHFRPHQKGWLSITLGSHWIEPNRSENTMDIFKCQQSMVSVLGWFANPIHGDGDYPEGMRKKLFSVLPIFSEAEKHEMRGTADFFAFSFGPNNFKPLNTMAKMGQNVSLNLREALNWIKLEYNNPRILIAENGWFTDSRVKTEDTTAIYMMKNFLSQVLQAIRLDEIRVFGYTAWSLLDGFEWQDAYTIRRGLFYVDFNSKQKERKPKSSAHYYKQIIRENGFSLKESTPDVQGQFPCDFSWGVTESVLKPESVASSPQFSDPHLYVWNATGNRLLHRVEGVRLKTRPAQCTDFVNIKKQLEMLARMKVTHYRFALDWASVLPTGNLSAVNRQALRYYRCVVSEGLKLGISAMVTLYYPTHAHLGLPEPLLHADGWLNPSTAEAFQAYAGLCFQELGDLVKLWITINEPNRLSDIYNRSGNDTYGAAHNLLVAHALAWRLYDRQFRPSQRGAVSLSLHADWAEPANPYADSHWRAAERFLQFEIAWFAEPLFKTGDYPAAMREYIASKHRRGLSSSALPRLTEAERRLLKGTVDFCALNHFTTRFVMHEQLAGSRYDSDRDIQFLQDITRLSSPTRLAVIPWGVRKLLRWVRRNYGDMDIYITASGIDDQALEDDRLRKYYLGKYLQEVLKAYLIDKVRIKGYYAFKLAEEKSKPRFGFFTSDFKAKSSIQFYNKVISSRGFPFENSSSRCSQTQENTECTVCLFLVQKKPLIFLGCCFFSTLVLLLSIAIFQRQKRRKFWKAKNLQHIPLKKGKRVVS

One assay addresses mu-FGFR1c-Fc (murine) (UniProt P16092). Put plainly: ELISA (Example 10), antigen on plate (FIG. 13). In general terms: ELISA stands for enzyme-linked immunosorbent assay.
Assay [1] has as its target human FGFR1c (hu-FGFR1c) (human) (UniProt P11362). Put plainly: peptide library screen and ELISA on plate-coated FGFR1c (Example 6, anti-M13-HRP).
The target in assay [2] is biotinylated hu-β-klotho (human) (UniProt Q86Z14). Description: Octet QK (BLI), biotinylated hu-β-klotho on streptavidin biosensors (Example 12, FIG. 9A).

No constants are given. Whether binding was seen depends on the method and setting. Some results given as binding are weak or reduced against the parent protein; the word gives no strength.

Take HFKCGMGLFECADP [Rm40]: the binding entry (with mu-FGFR1c-Fc (murine); in assay [1]) was “binds” in each case.

For the molecule FTWVFWNV [SR7], the binding entry in assay [1] is “binds”.

With YSAWSFWV [SR21], the binding result in assay [1] is “binds”.

On to APSCKSYIGFGLYHCWDG [Rm37], for which the binding result in assay [1] was “binds”.

As for YVFYLWWK [SR17], in assay [1], the binding entry is “binds”.

In the case of KKHWSSLFFE [SR26], in assay [1], the binding entry is “binds”.

Consider WRKYYHFWVS [SR24], for which the binding entry in assay [1] is “binds”.

Regarding YQVWGYFV [SR8], in assay [1], the binding entry is recorded as “binds”.

Turning to WAERGG [SR11], the binding entry in assay [1] is on record as “binds”.

For the molecule RRLYIFEW [SR10], the binding result in assay [1] is “binds”.

Regarding YQAWGYFV [SR6], in assay [1], the binding entry is recorded as “binds”.

Consider RRLYIFWE [SR2], for which the binding entry in assay [1] is reported as “binds”.

Consider YQAWGYLV [SR5], for which, in assay [1], the binding entry is recorded as “binds”.

As for HFGCGVIFNCVSD [Rm27], the binding entry in assay [1] is “binds”.

Regarding YKWLKWNL [SR9], the binding result in assay [1] is given as “binds”.

TRLWKYWV [SR1]: the binding result in assay [1] was “binds”.

Regarding YKAWGYYV [SR3], the binding entry in assay [1] was “binds”.

EWYCGVLFNCQQ [Rm26]: the binding entry (with mu-FGFR1c-Fc (murine); in assay [1]) was “binds” each time.

As for RRQWGFWV [SR20], in assay [1], the binding result was “binds”.

With YDAWGYWV [SR23], the binding entry in assay [1] is recorded as “binds”.

Turning to YKFLFWHA [SR19], in assay [1], the binding entry is listed as “binds”.

Regarding KAWPYSWEAV [SR27], in assay [1], the binding entry was “binds”.

B1: 9D10 (antibody, human IgG2, lambda, V domains shown)
VH: QVQLVESGGGVVQPGRSLRLSCAASGFTFRSYGMHWVRQAPGKGLEWVAVIWYDGRNEYYADSVKGRFTISRDNSKNTLYLRMNSLRAEDTAVYYCARDHPVAGTSFDYWGQGTLVTVSS
VL: QSVLTQPPSVSAAPGQKVTISCSGSSSNIGNNYVSWYQQLPGTAPKLLIYDNNRRPSGIPDRFSGSKSGTSATLGITGLQTGDEADYYCGTWDSSLSAVVFGGGTKLTVLG
For the molecule B1, the binding entry in assay [2] is “binds”.

B2: 3F4 (antibody, human IgG2, lambda, V domains shown)
VH: QVQLVESGGGVVQPGRSLRLSCAASGFIFRSYGMHWVRQAPGKGLEWVAVISYDGSNKYYADSVKGRFTISRDNSKNTLYLQMNSLRAEDTAVYYCARDHPVAGTSFDYWGQGTLVTVSS
VL: QSVLTQPPSVSAAPGQKVTISCSGSSSNIGNNYVSWYQQLPGTAPKLLIYDNNNRPSGIPDRFSGSKSGTSATLGITGLQTGDEADYYCETWDSSLSAGVFGGGTKLTVLG
With B2, in assay [2], the binding result was “binds”.

For the molecule YQAWGYYV [SR4], the binding result (in the assay with mu-FGFR1c-Fc (murine); in assay [1]) was “binds” throughout.

B3: 10H3 (antibody, human IgG2, kappa, V domains shown)
VH: QVQLVQSGAEVRKPGASVKVSCKASGYTFTAYYMHWVRQAPGQGLEWMGWINPYSGGTNSAQKFQGRVTMTRDTSISTAYMELSWLRSDDTAVYYCARDATSGWFDFWGQGTLVTVSS
VL: DIVMTQTPLSSPVTLGQPASISCRSSQSLVHYDGNTYLSWLQQRPGQPPRLLIYKISNRFSGVPDRFSGSGAGTDFTLKISRVAAEDVGIYYCMQALEFPWTFGQGTKVEIKR
Turning to B3, the binding result in assay [2] was “binds”.

B4: 1B5 (antibody, human IgG2, kappa, V domains shown)
VH: QVQLVQSGAEVKKPGASVKVSCKASGYTFTAYYMHWVRQAPGQGLEWMGWINPNSGGTNSAQKFQGRVTMTRDTSIRTAYMELSWLRSDDTAVYYCARDATSGWFDFWGQGTPVTVSS
VL: DIVMTQTPLTSPVTLGQPASISCRSSQSLVHYDGNTYLSWLQQRPGQPPRLLIYKISNRFSGVPDRFSGSGAGTDFTLKISRVEAEDVGIYYCMQALEFPWTFGQGTKVEIKR
Turning to B4, the binding result in assay [2] is given as “binds”.

B5: 3B4 (antibody, human IgG2, kappa, V domains shown)
VH: QVQLVQSGAEVKKPGASVKVSCKASGYTFTAYYMHWVRQAPGQGLEWMGWINPNSGGTNSAQKFQGRVTMTRDTSIRTAYMELSWLRSDDTAVYYCARDATSGWFDIWGQGTPVTVSS
VL: DIVMTQTPLSSPVTLGQPASISCRSSQSLVHYDGNTYLSWLQQRPGQPPRLLIYKISNRFSGVPDRFSGSGAGTDFTLKISRVEAEDVGIYYCMQALEFPWTFGQGTKVEIKR
On to B5, for which, in assay [2], the binding entry was “binds”.

As to KRLYGLFWYD [SR25], in assay [1], the binding entry was “binds”.

As for WELCASGYGWCYLH [Rm33], the binding result in assay [1] was “binds”.

LARWGFWV [SR22]: the binding entry in assay [1] is reported as “binds”.

On to YRWLHWHV [SR18], for which the binding result in assay [1] is “binds”.
